Measurements published in US6723733B2, “Sulfonamide and carbamide derivatives of 6(5H)phenanthridinones and their uses” (Guilford Pharmaceuticals, Inc., priority 2000, dated 2004).

Test system: male Long-Evans rats
Assay: Focal cerebral ischemia (MCA cauterization with temporary bilateral CCA occlusion)
Assay type: in vivo, rat
Settings: for PaCO2 / PaO2 / arterial pH: arterial blood 30 minutes after MCA occlusion; for MABP Ischemia: average during occlusion; for relative blood flow in the right parietal cortex, of the baseline: during occlusion, laser Doppler, control 20.8±7.7%; for MABP Steady State: just prior to occlusion

For O=C1NCCc2c(OCCCCN3CCCCC3)cccc21 [DPQ, 3,4-dihydro-5-[4-(1-piperidinyl)-butoxy]-1(2H)-isoquinolinone], the PaCO2 (5 mg/kg-treated group) was 38.0 ± 2.8 mm Hg, the PaO2 (5 mg/kg-treated group) was 126 ± 20 mm Hg and the “arterial pH” value (5 mg/kg-treated group) was 7.36 ± 0.02. The “MABP Ischemia” value (5 mg/kg-treated group) was 91 ± 12 mm Hg, the “relative blood flow in the right parietal cortex, of the baseline” value (from here on “relative blood flow”) (5 mg/kg-treated group) was 18.7±7.4% and the “MABP Steady State” value (5 mg/kg-treated group) was 78 ± 5 mm Hg. The PaCO2 (10 mg/kg-treated group) was 39.3 ± 5.2 mm Hg, the PaO2 (10 mg/kg-treated group) was 125 ± 16 mm Hg and the “arterial pH” value (10 mg/kg-treated group) was 7.34 ± 0.03. For the same compound, the “MABP Ischemia” value (10 mg/kg-treated group) was 90 ± 14 mm Hg, the “relative blood flow” value (10 mg/kg-treated group) was 21.4±7.7% and the “MABP Steady State” value (10 mg/kg-treated group) was 80 ± 9 mm Hg. The PaCO2 (20 mg/kg-treated group) was 41.3 ± 2.8 mm Hg, the PaO2 (20 mg/kg-treated group) was 122 ± 14 mm Hg and the “arterial pH” value (20 mg/kg-treated group) was 7.35 ± 0.23. For the same compound, the “MABP Ischemia” value (20 mg/kg-treated group) was 91 ± 12 mm Hg, the “MABP Steady State” value (20 mg/kg-treated group) was 79 ± 10 mm Hg and the PaCO2 (40 mg/kg-treated group) was 39.5 ± 4.7 mm Hg. For the same compound, the PaO2 (40 mg/kg-treated group) was 137 ± 17 mm Hg, the “arterial pH” value (40 mg/kg-treated group) was 7.33 ± 0.24 and the “MABP Ischemia” value (40 mg/kg-treated group) was 88 ± 12 mm Hg. The “relative blood flow” value (40 mg/kg-treated group) was 19.3±11.2% and the “MABP Steady State” value (40 mg/kg-treated group) was 78 ± 4 mm Hg.
